Values from PubChem BioAssay AID1159584 (Peter MacCallum Cancer Centre, 2016)
Screen: 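Genes that CDH1-null MCF10A cells selectively depend on to survive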 (primary screen). Cell system: human MCF10A breast epithelial cells, parental and CDH1-null. Knock-down reagent: siRNA against human genes. Measurement: 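Cell viability by CellTiter-Glo ATP luminescence, each line scaled to the mean of mock wells across plates, then CDH1-null over parental ratio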. Direction: CDH1-null / parental viability ratio: higher = CDH1-null cells survive relatively better than parental; CDH1-null viability vs mock: higher = more viable CDH1-null cells; parental viability vs mock: higher = more viable parental cells.
This is one part, drawn at random, of about 18,000 reagents tested. Not given: the amount of reagent, the time to read-out.

| gene | PubChem SID | CDH1-null / parental viability ratio | CDH1-null viability vs mock (fraction of mock) | parental viability vs mock (fraction of mock) |
| --- | --- | --- | --- | --- |
| TMEM270 (transmembrane protein 270) | SID152149018 | 1 | 1 | 1 |
| U2AF1L4 (U2 small nuclear RNA auxiliary factor 1 like 4) | SID152150418 | 1.53 | 0.84 | 0.55 |
| GPATCH2 (G-patch domain containing 2) | SID152150482 | 0.81 | 0.55 | 0.68 |
| EZH2 (enhancer of zeste 2 polycomb repressive complex 2 subunit) | SID135620794 | 0.84 | 0.72 | 0.86 |
| STARD4 (StAR related lipid transfer domain containing 4) | SID134309844 | 0.91 | 0.71 | 0.78 |
| MIEF1 (mitochondrial elongation factor 1) | SID134319953 | 0.76 | 0.48 | 0.63 |
| OGDHL (oxoglutarate dehydrogenase L) | SID134314427 | 1 | 0.88 | 0.88 |
| FOXD3 (forkhead box D3) | SID152149341 | 1.06 | 1.14 | 1.08 |
| ANKRD54 (ankyrin repeat domain 54) | SID134320570 | 0.8 | 0.44 | 0.55 |
| COL8A2 (collagen type VIII alpha 2 chain) | SID152148909 | 1.18 | 0.73 | 0.62 |
| DBF4B (DBF4B-CDC7 kinase regulatory subunit) | SID134317197 | 1 | 0.84 | 0.84 |
| PENK (proenkephalin) | SID152152108 | 1.17 | 0.75 | 0.64 |
| BEST4 (bestrophin 4) | SID152149816 | 0.95 | 0.9 | 0.95 |
| NRDE2 (NRDE-2, necessary for RNA interference, domain containing) | SID134318002 | 1.07 | 0.94 | 0.88 |
| MYH10 (myosin heavy chain 10) | SID134325581 | 1.07 | 0.98 | 0.92 |
| ZNF185 (zinc finger protein 185 with LIM domain) | SID135623765 | 0.75 | 0.62 | 0.83 |
| SCRN3 (secernin 3) | SID152151557 | 0.98 | 0.89 | 0.91 |
| TRIM9 (tripartite motif containing 9) | SID134317217 | 0.99 | 0.74 | 0.75 |
| LYRM9 (LYR motif containing 9) | SID135624945 | 0.84 | 0.72 | 0.86 |
| TPO (thyroid peroxidase) | SID134314562 | 1.11 | 0.84 | 0.76 |
| PI16 (peptidase inhibitor 16) | SID152153380 | 1.04 | 0.75 | 0.72 |
| LIN52 (lin-52 DREAM MuvB core complex component) | SID152150000 | 1.1 | 0.53 | 0.48 |
| ALG6 (ALG6 alpha-1,3-glucosyltransferase) | SID134317876 | 1 | 0.88 | 0.88 |
| DMP1 (dentin matrix acidic phosphoprotein 1) | SID152148833 | 1.01 | 0.96 | 0.95 |
| AFDN (afadin, adherens junction formation factor) | SID135623906 | 0.78 | 0.59 | 0.76 |
| DEF6 (DEF6 guanine nucleotide exchange factor) | SID152150989 | 0.83 | 0.74 | 0.89 |
| FAM114A1 (family with sequence similarity 114 member A1) | SID134319588 | 0.71 | 0.6 | 0.85 |
| KRT71 (keratin 71) | SID134319172 | 0.91 | 0.67 | 0.74 |
| PDCD6 (programmed cell death 6) | SID152149825 | 0.89 | 0.9 | 1.01 |
| SULT2B1 (sulfotransferase family 2B member 1) | SID135621786 | 1.09 | 0.7 | 0.64 |
| ASB5 (ankyrin repeat and SOCS box containing 5) | SID135623337 | 1.05 | 0.9 | 0.86 |
| ANXA5 (annexin A5) | SID134315565 | 0.88 | 0.66 | 0.75 |
| STMN4 (stathmin 4) | SID134320786 | 0.91 | 0.72 | 0.79 |
| XDH (xanthine dehydrogenase) | SID152147137 | 0.9 | 0.93 | 1.03 |
| SCAPER (S-phase cyclin A associated protein in the ER) | SID134315153 | 1.05 | 1.02 | 0.97 |
| OR8J3 (olfactory receptor family 8 subfamily J member 3) | SID134329835 | 0.67 | 0.56 | 0.83 |
| NBL1 (NBL1, DAN family BMP antagonist) | SID152153654 | 0.87 | 0.65 | 0.75 |
| RNF6 (ring finger protein 6) | SID152152852 | 1.05 | 1 | 0.95 |
| PLA2G3 (phospholipase A2 group III) | SID152150077 | 1.09 | 0.95 | 0.87 |
| LRRC23 (leucine rich repeat containing 23) | SID134322724 | 0.75 | 0.92 | 1.23 |
| NMRK2 (nicotinamide riboside kinase 2) | SID152147205 | 0.83 | 0.72 | 0.87 |
| PSMC3 (proteasome 26S subunit, ATPase 3) | SID152150423 | 1.12 | 0.38 | 0.34 |
| CPT1C (carnitine palmitoyltransferase 1C) | SID135621655 | 0.89 | 0.57 | 0.64 |
| EIF4EBP2 | SID135623570 | 1.14 | 1.42 | 1.25 |
| CYP2R1 (cytochrome P450 family 2 subfamily R member 1) | SID152151753 | 0.74 | 0.78 | 1.06 |
| CASD1 (CAS1 domain sialic acid O acetyltransferase 1) | SID134320898 | 0.98 | 1.25 | 1.27 |
| GLA (galactosidase alpha) | SID152149907 | 1.06 | 0.85 | 0.8 |
| LPO (lactoperoxidase) | SID134325640 | 1.01 | 0.84 | 0.83 |
| CCNB3 (cyclin B3) | SID152149423 | 1.06 | 1.14 | 1.08 |
| DFFA (DNA fragmentation factor subunit alpha) | SID135620828 | 0.85 | 0.7 | 0.82 |
| BCKDHA (branched chain keto acid dehydrogenase E1 subunit alpha) | SID134316827 | 1.47 | 0.56 | 0.38 |
| OR8H2 (olfactory receptor family 8 subfamily H member 2) | SID152153813 | 1.26 | 0.73 | 0.58 |
| DPYSL2 (dihydropyrimidinase like 2) | SID152151218 | 1.16 | 0.87 | 0.75 |
| KLHL40 (kelch like family member 40) | SID135623107 | 0.99 | 0.76 | 0.77 |
| PIGN (phosphatidylinositol glycan anchor biosynthesis class N) | SID152153592 | 1.02 | 0.98 | 0.96 |
| PHOSPHO2 (phosphatase, orphan 2) | SID135625379 | 0.73 | 0.6 | 0.82 |
| ALDOA (aldolase, fructose-bisphosphate A) | SID134314947 | 0.79 | 0.49 | 0.62 |
| CLN5 (CLN5 lysosomal BMP synthase) | SID134323897 | 1 | 0.7 | 0.7 |
| FAM9A (family with sequence similarity 9 member A) | SID135623420 | 0.84 | 0.58 | 0.69 |
| MRM1 (mitochondrial rRNA methyltransferase 1) | SID134322257 | 1.19 | 0.76 | 0.64 |
| CERK (ceramide kinase) | SID152152071 | 1.13 | 0.93 | 0.82 |
| DSP (desmoplakin) | SID135623838 | 1.06 | 0.89 | 0.84 |
| NPM1 (nucleophosmin 1) | SID152147277 | 1.05 | 1 | 0.95 |
| GALNT5 (polypeptide N-acetylgalactosaminyltransferase 5) | SID134318373 | 0.78 | 0.72 | 0.92 |
| GTPBP10 (GTP binding protein 10) | SID135622878 | 0.91 | 0.73 | 0.8 |
| RTN2 (reticulon 2) | SID134316977 | 1.01 | 0.91 | 0.9 |
| GNB5 (G protein subunit beta 5) | SID152155692 | 1.09 | 0.84 | 0.77 |
| DIRC1 (disrupted in renal carcinoma 1) | SID134319223 | 1.2 | 0.84 | 0.7 |
